Measured values: paper PMC5709413
No constants are given. Whether binding was seen depends on the method and setting. Binding seen in cells or lysates may run through a third protein. Binding calls can cover weak binding; strength is not graded here. Tags and fused reporters may be left off the sequences shown.

T1: BEX1 (wild-type, untagged, from BEX1 transgenic mouse hearts) (UniProt Q9R224)
T1 sequence: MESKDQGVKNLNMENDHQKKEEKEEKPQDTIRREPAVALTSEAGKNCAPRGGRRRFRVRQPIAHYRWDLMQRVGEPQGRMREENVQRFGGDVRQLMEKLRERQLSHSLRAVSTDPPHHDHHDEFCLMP

T2: GST-BEX1 (brain-expressed X-linked protein 1 fused to glutathione-S-transferase) (UniProt Q9R224)
T2 sequence: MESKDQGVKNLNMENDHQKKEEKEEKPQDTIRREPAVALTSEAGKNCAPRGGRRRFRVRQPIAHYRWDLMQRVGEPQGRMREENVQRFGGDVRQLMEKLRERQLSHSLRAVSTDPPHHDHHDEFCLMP


Tests used:
[1] = target: T1, BEX1 (wild-type, untagged, from BEX1 transgenic mouse hearts); experiment: co-IP; BEX1 immunoprecipitated with anti-BEX1 (IgG as control) from BEX1 transgenic mouse hearts; Western blot for the endogenous partners
[2] = target: T2, GST-BEX1 (brain-expressed X-linked protein 1 fused to glutathione-S-transferase); experiment: pull-down; GST-BEX1 incubated with cardiac extracts of WT mouse hearts, without micrococcal nuclease; Western blot of the partners; only the target purified
[3] = target: PHD-containing factor 11 (PHF11), mouse heart (mouse (endogenous in mouse heart)); experiment: co-IP; reverse: endogenous DDX1, DDX3x, EPRS, PHF11 or hnRNPH1 immunoprecipitated with specific antibodies (IgG as control) from a BEX1 transgenic mouse heart; Western blot for BEX1

Row | binding [1] | binding [2] | binding [3] | Molecule
1 | binds | binds | – | PHD-containing factor 11 (PHF11), mouse heart
2 | – | – | binds | BEX1 (wild-type, untagged, from BEX1 transgenic mouse hearts) (protein, UniProt Q9R224 1-128) MESKDQGVKNLNMENDHQKKEEKEEKPQDTIRREPAVALTSEAGKNCAPRGGRRRFRVRQPIAHYRWDLMQRVGEPQGRMREENVQRFGGDVRQLMEKLRERQLSHSLRAVSTDPPHHDHHDEFCLMP
